These are yes or no findings as the source states them, for the method shown. Binding seen in cells or lysates may run through a third protein. Some binding calls cover weakened binding; strength is not graded here. Tags and fused reporters may be left off the sequences shown.
Target: Flag-tagged IGF2BP3 (IGF2BP3^Flag) (UniProt O00425)
Assay: co-IP; HEK293T cells co-transfected with His-tagged OLFML1 and Flag-tagged IGF2BP3 constructs (whole or truncated); IP with anti-Flag or anti-His; immunoblot with anti-Flag or anti-His

Protein sequences, listed by entry. Tags and fused reporters are not part of them.
UniProt O00425: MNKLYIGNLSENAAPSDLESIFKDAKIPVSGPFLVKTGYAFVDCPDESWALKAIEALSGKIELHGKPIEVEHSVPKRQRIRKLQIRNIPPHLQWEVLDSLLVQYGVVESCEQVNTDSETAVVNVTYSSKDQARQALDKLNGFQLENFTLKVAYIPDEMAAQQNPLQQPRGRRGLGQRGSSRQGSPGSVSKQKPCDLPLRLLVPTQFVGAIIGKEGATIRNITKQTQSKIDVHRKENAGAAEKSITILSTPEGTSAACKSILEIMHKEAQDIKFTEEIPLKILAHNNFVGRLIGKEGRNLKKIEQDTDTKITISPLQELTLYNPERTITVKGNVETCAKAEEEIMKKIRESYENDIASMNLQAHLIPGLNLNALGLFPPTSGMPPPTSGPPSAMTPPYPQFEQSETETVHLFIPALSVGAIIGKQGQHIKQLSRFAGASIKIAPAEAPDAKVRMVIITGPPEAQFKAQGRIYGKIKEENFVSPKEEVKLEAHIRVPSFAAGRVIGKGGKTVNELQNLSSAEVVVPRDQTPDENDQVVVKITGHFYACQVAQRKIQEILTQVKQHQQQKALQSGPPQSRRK

B1: OLF-like truncation of His-OLFML1 (Olfactomedin-like domain, amino acids 140-402) (domain or fragment, UniProt Q6UWY5 140-402)
chain: SCDNMLMGIKSLKIVKKMMDTHGSWMKDAVYNSPKVYLLIGSRNNTVWEFANIRAFMEDNTKPAPRKQILTLSWQGTGQVIYKGFLFFHNQATSNEIIKYNLQKRTVEDRMLLPGGVGRALVYQHSPSTYIDLAVDEHGLWAIHSGPGTHSHLVLTKIEPGTLGVEHSWDTPCRSQDAEASFLLCGVLYVVYSTGGQGPHRITCIYDPLGTISEEDLPNLFFPKRPRSHSMIHYNPRDKQLYAWNEGNQIIYKLQTKRKLPLK
binding: binds
